According to patent US8017656B2, “Organic sulfur compounds and use thereof” (Sumitomo Chemical Company, Limited, priority 2005, dated 2011):
Some results were stated once for a whole list of compounds, not compound by compound.

test system: brown planthoppers (Nilaparvata lugens); test: Test Example 1: rice plant systemic (root absorption) test against brown planthopper larvae; type: in vivo; conditions: 55.6 ppm test solution (Formulation Example 5), 45 ml absorbed from bottom of cup by rice plants; thirty first-instar larvae released 6 days later; counted on 6th day after release, 25° C.

SMILES | number of parasitic insects on the 6th day after the treatment
N#CC(CCC(F)(F)F)S(=O)(=O)CCC(F)(F)F (centres unmarked) [(1)] | ≤ 3
N#CC(CC(F)(F)C(F)(F)F)S(=O)(=O)CCC(F)(F)F (centres unmarked) [(2)] | ≤ 3
N#CC(CCC(F)(F)C(F)(F)F)S(=O)(=O)CCC(F)(F)F (centres unmarked) [(3)] | ≤ 3
N#CC(CCC(F)(F)C(F)(F)F)S(=O)(=O)CCC(F)(F)C(F)(F)F (centres unmarked) [(8)] | ≤ 3
CC(C#N)(CCC(F)(F)C(F)(F)F)S(=O)(=O)CCC(F)(F)F (centres unmarked) [(11)] | ≤ 3
CC(C#N)(CCC(F)(F)C(F)(F)F)S(=O)(=O)CCC(F)(F)C(F)(F)F (centres unmarked) [(13)] | ≤ 3
CCC(C#N)(CCC(F)(F)C(F)(F)F)S(=O)(=O)CCC(F)(F)F (centres unmarked) [(15)] | ≤ 3
CCCC(C#N)(CCC(F)(F)C(F)(F)F)S(=O)(=O)CCC(F)(F)F (centres unmarked) [(16)] | ≤ 3
CC(C)C(C#N)(CCC(F)(F)C(F)(F)F)S(=O)(=O)CCC(F)(F)F (centres unmarked) [(17)] | ≤ 3
CCCCC(C#N)(CCC(F)(F)C(F)(F)F)S(=O)(=O)CCC(F)(F)F (centres unmarked) [(18)] | ≤ 3
N#CC(F)(CCC(F)(F)C(F)(F)F)S(=O)(=O)CCC(F)(F)F (centres unmarked) [(20)] | ≤ 3
N#CC(Cl)(CCC(F)(F)C(F)(F)F)S(=O)(=O)CCC(F)(F)F (centres unmarked) [(21)] | ≤ 3
COC(=O)C(CCCC(F)(F)F)S(=O)(=O)CCC(F)(F)F (centres unmarked) [(22)] | ≤ 3
COC(=O)C(CCC(F)(F)C(F)(F)F)S(=O)(=O)CCC(F)(F)F (centres unmarked) [(23)] | ≤ 3
COC(=O)C(CCC(F)(F)C(F)(F)F)S(=O)(=O)CCC(F)(F)C(F)(F)F (centres unmarked) [(24)] | ≤ 3
CC(C)(C)OC(=O)C(CCC(F)(F)C(F)(F)F)S(=O)(=O)CCC(F)(F)F (centres unmarked) [(25)] | ≤ 3
COC(=O)C(C)(CCC(F)(F)C(F)(F)F)S(=O)(=O)CCC(F)(F)F (centres unmarked) [(26)] | ≤ 3
CCC(CCC(F)(F)C(F)(F)F)(C(=O)OC)S(=O)(=O)CCC(F)(F)F (centres unmarked) [(27)] | ≤ 3
COC(=O)C(F)(CCC(F)(F)C(F)(F)F)S(=O)(=O)CCC(F)(F)F (centres unmarked) [(29)] | ≤ 3
COC(=O)C(C)(CCC(F)(F)C(F)(F)F)S(=O)(=O)CCC(F)(F)C(F)(F)F (centres unmarked) [(30)] | ≤ 3
NC(=O)C(CCC(F)(F)C(F)(F)F)S(=O)(=O)CCC(F)(F)F (centres unmarked) [(31)] | ≤ 3

SMILES | number of parasitic insects on the 6th day after the treatment
CNC(=O)C(CCC(F)(F)C(F)(F)F)S(=O)(=O)CCC(F)(F)F (centres unmarked) [(32)] | ≤ 3
CN(C)C(=O)C(CCC(F)(F)C(F)(F)F)S(=O)(=O)CCC(F)(F)F (centres unmarked) [(33)] | ≤ 3
CC(CCC(F)(F)C(F)(F)F)(C(N)=O)S(=O)(=O)CCC(F)(F)F (centres unmarked) [(34)] | ≤ 3
CNC(=O)C(C)(CCC(F)(F)C(F)(F)F)S(=O)(=O)CCC(F)(F)F (centres unmarked) [(35)] | ≤ 3
CN(C)C(=O)C(C)(CCC(F)(F)C(F)(F)F)S(=O)(=O)CCC(F)(F)F (centres unmarked) [(36)] | ≤ 3
CCNC(=O)C(C)(CCC(F)(F)C(F)(F)F)S(=O)(=O)CCC(F)(F)F (centres unmarked) [(37)] | ≤ 3
CCC(CCC(F)(F)C(F)(F)F)(C(N)=O)S(=O)(=O)CCC(F)(F)F (centres unmarked) [(38)] | ≤ 3
N#CC(CCCC(F)(F)F)S(=O)(=O)CCC(F)(F)F (centres unmarked) [(39)] | ≤ 3
CCCNC(=O)C(C)(CCC(F)(F)C(F)(F)F)S(=O)(=O)CCC(F)(F)F (centres unmarked) [(40)] | ≤ 3
CC(C)NC(=O)C(C)(CCC(F)(F)C(F)(F)F)S(=O)(=O)CCC(F)(F)F (centres unmarked) [(41)] | ≤ 3
COC(=O)C(C)(CCCC(F)(F)F)S(=O)(=O)CCC(F)(F)F (centres unmarked) [(44)] | ≤ 3
CC(C#N)(CCCC(F)(F)F)S(=O)(=O)CCC(F)(F)F (centres unmarked) [(45)] | ≤ 3
CCOC(=O)C(C)(CCC(F)(F)C(F)(F)F)S(=O)(=O)CCC(F)(F)F (centres unmarked) [(46)] | ≤ 3
CC(CCC(F)(F)C(F)(F)F)(C(N)=S)S(=O)(=O)CCC(F)(F)F (centres unmarked) [(49)] | ≤ 3
CC(C#N)(CCC(F)(F)C(F)(F)F)SCCC(F)(F)F (centres unmarked) [(50)] | ≤ 3
N#CC(CCC(F)(F)F)S(=O)(=O)CCC(F)(F)C(F)(F)F (centres unmarked) [(53)] | ≤ 3
CC(C#N)(CCC(F)(F)C(F)(F)F)[S+]([O-])CCC(F)(F)F (centres unmarked) [(57)] | ≤ 3
COC(=O)C(Cl)(CCC(F)(F)C(F)(F)F)S(=O)(=O)CCC(F)(F)F (centres unmarked) [(58)] | ≤ 3
NC(=O)C(Cl)(CCC(F)(F)C(F)(F)F)S(=O)(=O)CCC(F)(F)F (centres unmarked) [(59)] | ≤ 3
NC(=O)C(CCC(F)(F)C(F)(F)F)S(=O)(=O)CCC(F)(F)C(F)(F)F (centres unmarked) [(60)] | ≤ 3
CC(CCC(F)(F)C(F)(F)F)(C(N)=O)S(=O)(=O)CCC(F)(F)C(F)(F)F (centres unmarked) [(61)] | ≤ 3

SMILES | number of parasitic insects on the 6th day after the treatment
COC(=O)C(CCC(F)(F)C(F)(F)F)[S+]([O-])CCC(F)(F)F (centres unmarked) [(63)] | ≤ 3
NC(=O)C(F)(CCC(F)(F)C(F)(F)F)S(=O)(=O)CCC(F)(F)F (centres unmarked) [(64)] | ≤ 3
COC(=O)C(Br)(CCC(F)(F)C(F)(F)F)S(=O)(=O)CCC(F)(F)F (centres unmarked) [(65)] | ≤ 3
COC(=O)C(C)(CCC(F)(F)C(F)(F)F)SCCC(F)(F)F (centres unmarked) [(68)] | ≤ 3
COC(=O)C(C)(CCC(F)(F)C(F)(F)F)[S+]([O-])CCC(F)(F)F (centres unmarked) [(71)] | ≤ 3
COC(=O)C(F)(CCC(F)(F)C(F)(F)F)S(=O)(=O)CCC(F)(F)C(F)(F)F (centres unmarked) [(72)] | ≤ 3
NC(=O)C(F)(CCC(F)(F)C(F)(F)F)S(=O)(=O)CCC(F)(F)C(F)(F)F (centres unmarked) [(73)] | ≤ 3
CN(C)C(=O)C(F)(CCC(F)(F)C(F)(F)F)S(=O)(=O)CCC(F)(F)F (centres unmarked) [(74)] | ≤ 3
CNC(=O)C(Cl)(CCC(F)(F)C(F)(F)F)S(=O)(=O)CCC(F)(F)F (centres unmarked) [(75)] | ≤ 3
COC(=O)C(Cl)(CCCC(F)(F)F)S(=O)(=O)CCC(F)(F)F (centres unmarked) [(79)] | ≤ 3
NC(=O)C(Cl)(CCCC(F)(F)F)S(=O)(=O)CCC(F)(F)F (centres unmarked) [(80)] | ≤ 3
NC(=O)C(Cl)(CCC(F)(F)F)S(=O)(=O)CCC(F)(F)F (centres unmarked) [(81)] | ≤ 3
COC(=O)C(Cl)(CCC(F)(F)C(F)(F)F)S(=O)(=O)CCC(F)(F)C(F)(F)F (centres unmarked) [(88)] | ≤ 3
NC(=O)C(Cl)(CCC(F)(F)C(F)(F)F)S(=O)(=O)CCC(F)(F)C(F)(F)F (centres unmarked) [(89)] | ≤ 3
COC(=O)C(Cl)(CCC(F)(F)F)S(=O)(=O)CCC(F)(F)C(F)(F)F (centres unmarked) [(93)] | ≤ 3
NC(=O)C(Cl)(CCC(F)(F)F)S(=O)(=O)CCC(F)(F)C(F)(F)F (centres unmarked) [(94)] | ≤ 3
NC(=O)C(Cl)(CCCCC(F)(F)F)S(=O)(=O)CCC(F)(F)F (centres unmarked) [(100)] | ≤ 3
COC(=O)C(CCCC(F)(F)C(F)(F)F)S(=O)(=O)CCC(F)(F)F (centres unmarked) [(101)] | ≤ 3
COC(=O)C(Cl)(CCCC(F)(F)C(F)(F)F)S(=O)(=O)CCC(F)(F)F (centres unmarked) [(102)] | ≤ 3
NC(=O)C(Cl)(CCCC(F)(F)C(F)(F)F)S(=O)(=O)CCC(F)(F)F (centres unmarked) [(103)] | ≤ 3
